Source: ChEMBL document CHEMBL3988442, “University of Dundee, Small-Polar-MMV Screening Library” (2021).

Amino acid sequences for entries named in this document (tags omitted).
UniProt E9BF75, entry or part of it: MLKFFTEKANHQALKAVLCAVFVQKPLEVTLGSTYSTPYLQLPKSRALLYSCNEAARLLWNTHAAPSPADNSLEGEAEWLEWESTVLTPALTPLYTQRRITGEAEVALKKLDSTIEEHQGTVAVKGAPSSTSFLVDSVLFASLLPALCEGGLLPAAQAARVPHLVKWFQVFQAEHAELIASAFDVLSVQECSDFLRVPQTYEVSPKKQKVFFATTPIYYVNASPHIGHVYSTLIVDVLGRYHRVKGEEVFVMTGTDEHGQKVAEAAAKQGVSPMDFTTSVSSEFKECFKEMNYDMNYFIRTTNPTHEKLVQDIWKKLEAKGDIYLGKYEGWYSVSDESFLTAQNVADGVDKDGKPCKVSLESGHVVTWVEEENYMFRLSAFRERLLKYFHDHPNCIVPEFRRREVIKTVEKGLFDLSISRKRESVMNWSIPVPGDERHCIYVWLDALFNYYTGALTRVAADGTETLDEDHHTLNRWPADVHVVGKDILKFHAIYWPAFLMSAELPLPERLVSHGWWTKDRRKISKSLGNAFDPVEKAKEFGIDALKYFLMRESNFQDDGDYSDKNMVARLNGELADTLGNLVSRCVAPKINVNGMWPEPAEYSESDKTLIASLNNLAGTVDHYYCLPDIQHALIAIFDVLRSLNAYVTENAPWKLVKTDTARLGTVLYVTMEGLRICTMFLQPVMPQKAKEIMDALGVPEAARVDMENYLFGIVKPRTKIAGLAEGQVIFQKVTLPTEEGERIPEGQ

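Primary screen of methionyl-tRNA synthetase; the read-out is not stated. Target: Methionyl-tRNA synthetase (putative), Leishmania donovani (UniProt E9BF75). The test concentration is not given. Values are per cent inhibition. About 68,000 compounds were tested under these conditions; 0.035% (about 24) showed 50% or more at least once.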

Results are percentages, as filed.
The record does not define 0% and 100%; most values in the screen are far below 50% and negative numbers occur (in some assays of this library far below -100).
This is an unselected part of the compounds tested.

SMILES,Inhibition
O=C(c1cnccn1)N1CCc2onc(Cn3cccn3)c2C1,3.922
O=C(c1ncccn1)N1C[C@@H]2CN(Cc3cccnc3)CCO[C@@H]2C1,8.497
COc1ccccc1CC(NC(=O)N1CCC[C@@H]1CO)C(C)C (some centres not stated),-0.8065
O=C(Nc1cccc(CNCc2cccs2)c1)C1CC1,11.75
Cn1ccc2cc(CC3COCCN(C(=O)c4cccnc4)C3)ccc21 (configuration not stated),2.188
Cc1ncccc1NC(=O)[C@@H]1CCO[C@@H]2CCN(c3ccccc3)C[C@@H]21,15.38
Cn1c(N2CC[C@H](O)C2)nc2cc(C(N)=O)ccc21,7.563
COc1ccccc1CNCc1nn(-c2ccccc2)c2c1CCC2,17.54
COc1ncccc1NC(=O)NC1CCOc2ccccc21 (configuration not stated),15.56
CN(C)S(=O)(=O)NCC1(c2ccccc2Br)CC1,12.37
CN1C(=O)CC(c2cnn(C)c2)C12CCN(CC1CCOCC1)CC2 (configuration not stated),14.01
CC(C)CN1C(=O)COC[C@@H]1[C@H](O)c1ccc(NC(=O)C2CC2)cc1,6.767
CC(Sc1nncn1C)C(=O)NCCCOc1ccc(F)cc1 (configuration not stated),9.537
CCOc1ccc2[nH]c(=O)c(CN3CCC(n4cnnc4)CC3)cc2c1,11.17
CC(C)c1nc(CN(C)C(=O)CNS(=O)(=O)c2cccs2)no1,-0.5988
Cc1nnc(NC(=O)CN2CCCC(c3ccn[nH]3)C2)s1 (configuration not stated),0.2564
COc1cc(C2SCC(=O)Nc3[nH]ncc32)cc(OC)c1OC (configuration not stated),18.7
COc1c(C2CCCN2C(=O)c2scnc2C)c(C)nn1C (configuration not stated),9.972
COc1ccc(S(=O)(=O)NC(=O)c2ccccc2F)cc1OC,14.52
CC(C)Cn1cc(NC(=O)N2CCCC2)cn1,17.37
CC(C)c1nc2c(n1C)CCN(CCS(=O)(=O)c1ccccc1)C2,16.67
CCC1=NC(SCC(=O)c2ccccc2)c2cc(CC)sc2N1 (configuration not stated),7.286
O=C(Nc1ccc(F)cc1F)N(CCC(F)(F)F)C[C@H](O)CO,-3.039
CN(CC(F)(F)F)C(=O)CNC(=O)Cc1ccc(O)cc1Cl,14.76
Cc1cnn(CC2CCCN2C(=O)c2n[nH]c3ccccc23)c1 (configuration not stated),8.434
Fc1ccc2c(c1)C(NCc1nnc3n1CCCCC3)CCCO2 (configuration not stated),2.602
Cc1cc(NC(=O)CN2CCCC2c2noc(C(C)C)n2)n(C)n1 (configuration not stated),7.692
Cc1nc(C)n(CC2CCCCN2CC(=O)Nc2nnc(C)s2)n1 (configuration not stated),16.27
Cc1nccnc1N1CCC2(CCCN(C3CCOCC3)C2=O)C1 (configuration not stated),-1.5
O=C(NCC1CCS(=O)(=O)C1)c1ccco1 (configuration not stated),12.89
O=C([C@H]1CCCO1)N1CCN(Cc2cccnc2)c2ncccc2C1,2.466
Cc1ccc(O)c(-c2cc(NCCO)nc3[nH]ccc23)c1,13.36
COc1c[nH]c(C(=O)N2CCN(c3ccc(Cl)cc3)CC2)cc1=O,3.217
CN1CCCc2cc(CNC(=O)c3cccnc3O)ccc21,12.54
Cc1nn(C)c(N(C)C)c1CNC1CCOc2ccccc21 (configuration not stated),24.59
Cn1cc(C(=O)N2CCN(c3ncccn3)CC2)ccc1=O,20.56
CC(C)CCC(=O)Nc1ncn(CC(=O)N2CCCCCC2)n1,13.77
CCc1oc(C(=O)NCCc2cc(O)nc(C)n2)cc1CN1CCCC1,8.571
CN(CCCc1cnn(C)c1)C(=O)C1COc2ccccc2C1 (configuration not stated),11.33
COCCn1nc(C(=O)N(C)Cc2cccnc2)ccc1=O,13.5
c1csc(-c2nc(CN3CCn4c(nnc4C4CC4)C3)co2)c1,11.89
O=C1CN(c2cc(-c3ccccc3F)nc3ccnn23)CCCN1,15.82
O=C(NCc1nncn1C1CCCCC1)C1COc2ccccc2C1 (configuration not stated),15.46
COc1ccc(Cl)cc1CNCCCn1ccnc1,-5.974
CNc1nnc(CCn2nc(C)c(Br)c2C)s1,5.789
COc1ccnc(N2CCN(C(=O)c3csc(C)n3)CC2)n1,7.117
Cn1c(C(=O)N2CCC(C(=O)N3CCCC3)CC2)c(Cl)c2ccccc21,16.59
COc1ccccc1-c1ccc(C(=O)N2C[C@H]3CC[C@@H]2CN(C)C3)cc1,10.78
COCCS(=O)(=O)N1CCN(c2cccc(O)c2)CC1,17.13
O=C(Cc1cccnc1)N1CCC2(CCN(CC3CCCCC3)C2)CC1,6.452
CCC(CC)NC(=O)c1ccc2nnc(C3CCN(C(C)=O)C3)n2c1 (configuration not stated),7.769
O=C(c1ccc(F)cc1)N1C[C@@H]2CCN(c3cccnc3)C[C@@H]2C1,11.75
CN1C(=O)CC(C(=O)O)C12CCN(Cc1ccc(F)cc1Cl)CC2 (configuration not stated),8.78
CC(NC(=O)N(C)Cc1ccncc1)c1nncn1C (configuration not stated),10.62
CS(=O)(=O)N1CCCN(C(=O)c2ccc(Cn3ccccc3=O)o2)CC1,9.206
CSCCC(=O)N1CC[C@@H](N2CCN(c3ccccc3F)CC2)[C@H](O)C1,1.079
O=S1(=O)C[C@@H]2[C@H](C1)N(Cc1cccc(O)c1)CCN2CC1CC1,2.235
CCN(Cc1ccccc1)C(=O)CN1CCCCC1Cn1cncn1 (configuration not stated),9.317
O=C(CCC(=O)NCc1cccc(Br)c1)NCCN1CCCC1,13.81
CC(=O)N1CCN(c2ccc3ccc(C(=O)NC4CCCC4)cn23)CC1,52.86
CCC/C=C/c1ccc(CN2CCN(C)CC2)cn1,10.07
Cc1ccc2c(c1)CN(C(=O)c1cccs1)C(CN(C)C)CO2 (configuration not stated),13.02
COc1ccc(C(=O)NS(=O)(=O)c2cccc(C#N)c2)cc1,6.983
CC(C)CCn1[nH]c(CNc2ccc(Cl)cc2)nc1=O,13.6
CC(C)n1cc(CN(Cc2ccsc2)CC2CCCO2)cn1 (configuration not stated),13.01
CC(NC(=O)c1coc(COc2cccc(F)c2)n1)c1nnc(N)s1 (configuration not stated),7.216
Cc1cc(C)c(CNC(=O)N2CCC(N3CCCCC3)CC2)c(=O)[nH]1,13.04
Cc1nc2ccn(C(C)C)c(=O)c2cc1C(=O)O,13.64
CCC1CN(Cc2nnc(C3CC3)o2)CCN1CCOC (configuration not stated),15.76
CCCn1ncc(C(=O)N2CCN(C3Cc4ccccc4C3)CC2)c1C,8.219
CSc1ccccc1C(=O)N1C[C@@H](N(C)C)[C@H](c2ccc(C)cc2)C1,16.82
CNC(=O)c1cn[nH]c1C1CCN(Cc2cn(C)nc2C)C1 (configuration not stated),12.9
CC(NC(=O)NCC1(O)CCC1)c1ccc(OCC2CC2)c(F)c1 (configuration not stated),13.38
CCC(C)NS(=O)(=O)c1ccc(/C=C\c2onc(C)c2NC(C)=O)cc1 (configuration not stated),-9.492
Cc1noc2ncnc(N3CCC(O)(Cn4ccnc4)CC3)c12,2.93
CC(C)c1ncc2c(n1)CN(CC(=O)Nc1ccc(Cl)cn1)CC2,18.79
COc1ccc(NC(C)=O)c(N2CCN(C(C)=O)CC2)n1,16.19

Repeated from the top, 5 entries:

| SMILES | Inhibition |
|---|---|
| `O=C(c1cnccn1)N1CCc2onc(Cn3cccn3)c2C1` | 3.922 |
| `O=C(c1ncccn1)N1C[C@@H]2CN(Cc3cccnc3)CCO[C@@H]2C1` | 8.497 |
| `COc1ccccc1CC(NC(=O)N1CCC[C@@H]1CO)C(C)C` (some centres not stated) | -0.8065 |
| `O=C(Nc1cccc(CNCc2cccs2)c1)C1CC1` | 11.75 |
| `Cn1ccc2cc(CC3COCCN(C(=O)c4cccnc4)C3)ccc21` (configuration not stated) | 2.188 |